Experimental findings from article PMC12623720 are described below.

Chains of the proteins cited; added tags and fusions are not shown. Lines headed by an entry give the natural chain unless they say otherwise; changes in a name come on top. Residues count along the entry.
UniProt Q8NAU1: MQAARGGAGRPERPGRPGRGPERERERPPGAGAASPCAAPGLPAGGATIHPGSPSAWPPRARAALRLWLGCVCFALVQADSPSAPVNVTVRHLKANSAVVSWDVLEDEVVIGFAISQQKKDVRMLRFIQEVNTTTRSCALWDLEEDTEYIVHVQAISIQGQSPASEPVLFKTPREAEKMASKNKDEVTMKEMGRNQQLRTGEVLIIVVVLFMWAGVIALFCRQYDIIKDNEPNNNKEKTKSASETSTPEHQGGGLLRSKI
UniProt P02768, residues 25-609: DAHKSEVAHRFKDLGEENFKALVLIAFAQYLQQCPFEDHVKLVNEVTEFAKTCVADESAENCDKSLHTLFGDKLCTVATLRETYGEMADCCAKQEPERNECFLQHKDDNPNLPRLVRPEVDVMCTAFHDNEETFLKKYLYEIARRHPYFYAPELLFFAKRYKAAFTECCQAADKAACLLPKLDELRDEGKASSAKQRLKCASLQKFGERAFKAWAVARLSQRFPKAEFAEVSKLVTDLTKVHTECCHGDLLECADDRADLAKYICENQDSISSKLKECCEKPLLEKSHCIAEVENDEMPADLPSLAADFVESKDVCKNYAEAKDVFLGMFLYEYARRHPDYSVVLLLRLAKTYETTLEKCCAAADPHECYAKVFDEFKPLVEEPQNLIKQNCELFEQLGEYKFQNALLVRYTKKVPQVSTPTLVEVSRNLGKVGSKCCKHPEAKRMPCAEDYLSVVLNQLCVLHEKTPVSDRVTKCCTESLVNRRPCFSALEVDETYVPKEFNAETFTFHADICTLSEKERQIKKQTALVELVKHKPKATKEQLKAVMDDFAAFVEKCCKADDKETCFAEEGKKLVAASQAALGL

Results are given in words; binding and its absence hold for the method and conditions named.

This assay addresses Irisin (UniProt Q8NAU1). As to the kind of experiment: pull-down; His-tagged Irisin or ABD-Irisin (1 mL, 100 ng/mL in PBST) immobilised on 20 uL Ni-NTA magnetic beads, 4 °C, 2 h; beads then incubated with HSA (100 ng/mL) for 6 h; eluted in SDS-PAGE loading buffer; HSA detected by Western blot; both purified.

Consider “human serum albumin (from UniProt P02768 25-609)”, for which the binding result is “no binding (tested: 100 ng/mL)”.
